Experimental data published in US6562331B1, “Mating disruption methods for the control of insect pests” (Shin-Etsu Chemical Co., Ltd., priority 1999, dated 2003).

Tests used:
[1] = Sex pheromone released in a desiccator over dried soil with or without covering film, collected in hexane, gas chromatography; conditions: for Analytical values (amount collected from desiccator air): collected about 4 hours
Method: Using a desiccator having a diameter of 22 cm and a height of 20 cm and provided with two threaded openings at the top and in the sidewall, soil which had been dried by heating at 110° C. for 2 hours was charged thereinto to a depth of 7 cm as measured from the bottom of the desiccator. The surface of the soil and the inner surfaces surrounding the upper space of the desiccator were covered with a film of a saponification product of ethylene-vinyl acetate copolymer (trade name: Vinylon np, manufactured by Aicello Chemical Co., Ltd.). In this desiccator, a sustained release sex pheromone preparation comprising a plastic container (polyethylene tube) measuring 1.07 mm in inner diameter, 1.73 mm in outer diameter, and 200 mm in length, and having sealed therein a sex pheromone mixture (120 g) composed of 5 parts by weight of Z11-tetradecenal (Z11-16:Ald) and 5 parts by weight of Z11-tetradecenyl acetate (Z11-16:Ac) was broken in two and placed on the soil with the aid of a support. Then, a 250 ml collection bottle containing 200 ml of hexane was connected to the upper opening of the desiccator by means of a teflon tube, and a suction pump was further connected to the collection bottle. Thus, Z11-tetradecenal and Z11-tetradecenyl acetate released in the desiccator were collected for about 4 hours, and the amounts thereof were measured.
The measurement was made by subjecting the collecting hexane solution to gas chromatography and determining the pheromones according to the internal standard method.
According to the same procedure as described in Example 4, soil which had been dried by heating at 110° C. for 2 hours was charged into a desiccator, and a sustained release sex pheromone preparation comprising a plastic container having 5 parts by weight of Z11-tetradecenal and 5 parts by weight of Z11-tetradecenyl acetate sealed therein was placed thereon with the aid of a support. Using the same solvent as used in Example 4, Z11-tetradecenal and Z11-tetradecenyl acetate released in the desiccator were collected for the same time and determined.

[2] = Sex pheromone concentration in the air of a treated paddy field (filled with water or drained), activated carbon collection, gas chromatography; conditions: for Analytical values (concentration in the air): 50 cm above the ground, 8 hours collection at night
Text: Sustained release sex pheromone preparations were made by mixing 7 parts by weight of a rice stem borer (Chilo Suppressalis) sex pheromone fluid (composed of 77 parts by weight of Z11-hexadecenal (Z11-16:Ald), 8 parts by weight of Z9-hexadecenal (Z9-16:Ald), and 15 parts by weight of Z13-octadecenal (Z13-18:Ald)) with 3 parts by weight of n-tetradecenyl acetate (n-14:Ac) to form a sex pheromone-containing mixture, and sealing this mixture in plastic containers (polyethylene tubes) measuring 1.40 mm in inner diameter, 2.60 mm in outer diameter, and 200 mm in length.
In a 10 hectare paddy field (in Tatebayashi City, Gunma Prefecture, Japan) filled with water, sticks having the aforesaid sex pheromone preparations attached thereto were uniformly installed at a density of 250 sticks per 10 ares. Using this sex pheromone-treated field, the concentrations of Z11-hexadecenal and n-tetradecenyl acetate in the air were determined.
Specifically, a pole was set up at the center of this sex pheromone-treated field, and an absorption tube packed with 100 g of fibrous activated carbon was attached thereto at a height of 50 cm above the ground. Moreover, a suction pump was connected to the absorption tube, and suction was carried out for a period of 8 hours extending from 8 o'clock in the evening to 4 o'clock in the next morning to collect the sex pheromones present in the air. After collection, the activated carbon was extracted with n-hexane, and the extract was analyzed by gas chromatography. Thus, the concentrations of Z11-hexadecenal and n-tetradecenyl acetate in the air were determined.
Similarly to Example 3, sustained release sex pheromone preparations were made by mixing 7 parts by weight of a rice stem borer sex pheromone fluid [composed of 77 parts by weight of Z11-hexadecenal, 8 parts by weight of Z9-hexadecenal, and 15 parts by weight of Z13-octadecenal] with 3 parts by weight of n-tetradecenyl acetate (n-14:Ac) to form a sex pheromone-containing mixture, and sealing this mixture in plastic containers.
Thereafter, the same procedure as described in Example 3 was repeated, except that a 10 hectare paddy field (in Tatebayashi City, Gunma Prefecture, Japan) which had been completely drained off was used for the sex pheromone-treated field. Using this sex pheromone-treated field, the concentrations of Z11-hexadecenal and n-tetradecenyl acetate in the air were determined.

[3] = Comparative Example 3: dried soil, no covering film
[4] = Example 4: dried soil and inner surfaces covered with film of saponification product of ethylene-vinyl acetate copolymer
[5] = Comparative Example 2: paddy field completely drained off
[6] = Example 3: paddy field filled with water

Compound | Weight ratio Aldehyde/acetate [1, 3] | Analytical values (amount collected from desiccator air) [1, 3] | Weight ratio Aldehyde/acetate ([1]; Example 4: dried soil and inner surfaces covered with film) | Analytical values (amount collected from desiccator air) [1, 4] | Weight ratio Aldehyde/acetate [2, 5] | Analytical values (concentration in the air) [2, 5] | Weight ratio Aldehyde/acetate [2, 6] | Analytical values (concentration in the air) [2, 6]
CC/C=C\CCCCCCCCCC=O [Z11-tetradecenal] | 1.1 | 10 µg | 3.3 | 26 µg | – | – | – | –
CCCC/C=C\CCCCCCCCCC=O [Z11-hexadecenal] | – | – | – | – | 3.8 | 15 ng/m^3 | 7.2 | 36 ng/m^3
CC/C=C\CCCCCCCCCCOC(C)=O [Z11-tetradecenyl acetate] | – | 9 µg | – | 8 µg | – | – | – | –
n-tetradecenyl acetate | – | – | – | – | – | 4 ng/m^3 | – | 5 ng/m^3
